# Measurements reported in PubChem BioAssay AID1508588 (Peter MacCallum Cancer Centre, 2020)
# Screen: 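Genome-wide search for knock-downs that heighten vemurafenib action in melanoma cells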 (primary screen)
# System: human WM266.4 melanoma cells (BRAF V600 mutant)
# Knock-down reagent: siRNA pool against human genes, 40 nM
# Timing: 96 h from transfection to read-out
# Treatment: vemurafenib 300 nM (about IC25), added 48 h after transfection, for 48 h; comparison arm got DMSO vehicle only
# Measured: 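Ratios to non-targeting siRNA for cell gain, counted as DAPI nuclei after minus before drug and averaged over two replicates, and for absorbance-read medium lactate per cell; both binned into fold-change classes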
# Scale: cell gain with vemurafenib: higher = more cell gain than with non-targeting siRNA; lactate per cell with vemurafenib: higher = more lactate made per cell
# Call rule: 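Enhancement is called by pairing each knock-down's vehicle-arm and drug-arm fold-change classes for viability or glycolysis; which class combinations qualify is not given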
# Calls: active = enhances vemurafenib effect; inactive = no enhancement seen
# Here is a random part of about 18,000 reagents tested. In the full data, 790 (4.4%) got an active call. 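Calls rest on a combination of fold-change classes in drug and vehicle arms, not all shown here.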 A number with no mark means an inactive call. A reagent listed more than once was tested more than once; the source does not tell the runs apart. Reagent sequences are not shown.
Gene,cell gain with vemurafenib,lactate per cell with vemurafenib
CPNE2 (GeneID 221184),0.74,0.63
TAF12 (GeneID 6883),0.77,0.4
PFKFB3 (GeneID 5209),0.82,0.09
PFKFB3 (GeneID 5209),0.62,0.16
CT47A8 (GeneID 728049),0.93 (active),0.4
FAM209B (GeneID 388799),0.64,0.98
GML (GeneID 2765),0.09,1.47
C2orf76 (GeneID 130355),0.71,1.68
PRB1 (GeneID 5542),0.8,0.78
ZNF441 (GeneID 126068),0.34,1.39
PASK (GeneID 23178),0.46,1
TEX30 (GeneID 93081),0.7,1.04
TRIP10 (GeneID 9322),0.85,1.48
PACSIN2 (GeneID 11252),0.52,1
SLC35E3 (GeneID 55508),0.78,0.7
MRPL39 (GeneID 54148),0.68,0.84
TSSC4 (GeneID 10078),0.52,0.72
MGAT1 (GeneID 4245),0.77,1.25
CDH18 (GeneID 1016),0.84,0.98
ASIC2 (GeneID 40),0.77,0.86
PLIN1 (GeneID 5346),0.99,0.84
F11R (GeneID 50848),0.94,1.21
CHEK1 (GeneID 1111),0.25,1.9
ZC3H7B (GeneID 23264),0.39,0.94
KRTAP4-12 (GeneID 83755),0.61,1
TPO (GeneID 7173),0.05,0.63
RMP24 (GeneID 83608),0.61,1.04
ANO6 (GeneID 196527),0.65,0.54
CNGA1 (GeneID 1259),0.44,0.4
HIGD2A (GeneID 192286),0.64,0.83
HSF4 (GeneID 3299),0.79,0.84
UBE2J2 (GeneID 118424),0.37 (active),0.58
FRZB (GeneID 2487),0.84,1.24
SBF2 (GeneID 81846),0.35,1.28
THBS1 (GeneID 7057),0.3,2.03
AMACR (GeneID 23600),0.85,0.48
CENPI (GeneID 2491),0.43,0.73
LETM1 (GeneID 3954),0.33,0.83
NUMBL (GeneID 9253),0.33,0.56
FLG2 (GeneID 388698),0.08,1.44
CXCR3 (GeneID 2833),0.4,1.62
CCDC138 (GeneID 165055),0.84,0.62
LYSMD4 (GeneID 145748),0.85 (active),0.48
MPP3 (GeneID 4356),0.47,0.61
ELOVL6 (GeneID 79071),0.59,1.25
RSPH14 (GeneID 27156),0.6,1.36
DDT (GeneID 1652),1.08,0.38
ARHGAP22 (GeneID 58504),1,1.11
RASSF5 (GeneID 83593),0.75,0.57
KAT7 (GeneID 11143),0.19,1.48
SLC35G3 (GeneID 146861),0.46,0.8
FAM218A (GeneID 152756),0.81,0.73
EYA2 (GeneID 2139),0.7,0.55
MTFR1 (GeneID 9650),1.2,0.46
PRPS1 (GeneID 5631),1.18,0.51
RAB27B (GeneID 5874),0.82,1.09
RNASEH2A (GeneID 10535),1.07,0.89
EVA1A (GeneID 84141),0.47,0.99
ATP6V1B2 (GeneID 526),0.51,1.54
TAFA2 (GeneID 338811),0.66,0.99
TMEFF1 (GeneID 8577),0.59,0.87
REEP4 (GeneID 80346),0.33,0.48
PUM1 (GeneID 9698),0.17,1.5
MCTS1 (GeneID 28985),0.53,0.41
GPR17 (GeneID 2840),0.71,0.74
TMEM123 (GeneID 114908),0.77,1.38
KCMF1 (GeneID 56888),0.87,0.22
ATIC (GeneID 471),0.62 (active),0.62
LEMD3 (GeneID 23592),1.04,0.61
PDCD2L (GeneID 84306),0.77,0.96
TAB1 (GeneID 10454),0.61,0.77
KRT38 (GeneID 8687),0.34,0.12
LYPD3 (GeneID 27076),0.58,1.06
GSX1 (GeneID 219409),0.05,1.82
XRN2 (GeneID 22803),0.73,0.65
IL27RA (GeneID 9466),0.33,0.66
RAP1GAP (GeneID 5909),0.45,2.03
AGAP3 (GeneID 116988),0.52,1.05
ADGRB1 (GeneID 575),0.66,1.1
PAQR7 (GeneID 164091),0.39,1.88
GALNT14 (GeneID 79623),0.9,1.36
DARS1 (GeneID 1615),0.45,1.46
ACP2 (GeneID 53),0.47 (active),0.49
AARD (GeneID 441376),0.96,0.42
TBC1D2 (GeneID 55357),0.85,1.09
CDNF (GeneID 441549),0.92,0.97
WASF2 (GeneID 10163),0.23,1.04
MRS2 (GeneID 57380),0.56 (active),0.16
PANX1 (GeneID 24145),0.89,0.64
HROB (GeneID 78995),0.28,1.41
CDH19 (GeneID 28513),0.44,0.67
MAPK4 (GeneID 5596),0.12,0.76
MAGEB1 (GeneID 4112),0.96,0.68
SLC7A4 (GeneID 6545),0.64,0.63
QTGAL (GeneID 146712),0.71,0.97
INVS (GeneID 27130),0.79,0.75
CRTC3 (GeneID 64784),-0.07 (active),0.56
FBXO31 (GeneID 79791),0.33,1.28
MAEL (GeneID 84944),1.04,0.4
OPALIN (GeneID 93377),0.5,0.68
DNER (GeneID 92737),0.28,0.58
FIGLA (GeneID 344018),0.61,0.85
H4C9 (GeneID 8294),0.4,0.73
SLC38A11 (GeneID 151258),0.34,1.86
RABIF (GeneID 5877),0.93,0.62
COL5A2 (GeneID 1290),0.73,0.64
NDUFB1 (GeneID 4707),0.67,0.66
